test system: Leishmania mexicana amazonensis; test: In vitro screening for anti-leishmanial activity: inhibition of 3H-thymidine incorporation by promastigotes; type: cell-based; details: rank by NEW IC50 among 18 examples
Protocol: Leishmania mexicana amazonensis, strain MHOM/BR/73/M2269 (WR669), promastigotes were grown to early log phase in Schneider's Drosophila Medium (GIBCO) supplemented with 20% heat-inactivated fetal bovine serum GIBCO) and 100 ug/ml gentamicin sulfate [Parasitology 76:309 (1978)]. The assay medium was Schneider's plus 10% fetal bovine serum. Serial dilutions of the compounds of use in the present invention were suspended in the assay medium an prepared in duplicate rows of a 96-well microtiter plate. Parasite suspension (200 ul) at 2.5×10^6 cells/ml was added to each well and each plate was sealed and incubated under air at 25° C. After 24 hours, [methyl-3H] thymidine (20 Ci/mmol) was added to yield 1-2 uCi/well. After an additional 18 hours, the cells were harvested with a Skatron cell harvester onto glass microfiber filters. The filter disks were washed and dried and counted using a Beckman LS3801 scintillation counter. The data on uptake of ^3 H-thymidine was fitted to a logistic-logarithmic concentration response function by a non-linear regression method and the drug concentrations required to inhibit 50% incorporation of ^3 H-thymidine were determined [Antimicrob. Agents Chemother. 16:710 (1979); Exper. Parasitol. 66:86 (1988)].

SMILES	Rank (of 18) (NEW)
COc1cc(C(=N)N)ccc1OCCCOc1ccc(C(=N)N)cc1OC [Example 1]	10
N=C(N)c1ccc(NCCCCNc2ccc(C(=N)N)cc2)cc1 [Example 2]	3
N=C(N)c1ccc(OCCCCOc2ccc(C(=N)N)cc2)cc1 [Example 3]	7
N=C(N)c1ccc(OCCCCCOc2ccc(C(=N)N)cc2)cc1 [Example 4, pentamidine]	4
N=C(N)c1ccc(OCCCCCOc2ccc(C(=N)N)cc2[N+](=O)[O-])c([N+](=O)[O-])c1 [Example 5]	13
N=C(N)c1ccc(OCCCCCOc2ccc(C(=N)N)cc2N)c(N)c1 [Example 6]	12
COc1cc(C(=N)N)ccc1OCCCCCOc1ccc(C(=N)N)cc1OC [Example 7]	16
N=C(N)c1ccc(NCCCCCNc2ccc(C(=N)N)cc2)cc1 [Example 8]	2
N=C(N)c1ccc(OCCCCCCOc2ccc(C(=N)N)cc2)cc1 [Example 9, hexamidine, reference compound]	1
N=C(N)c1ccc(OCCCCCOc2ccc(C(=N)N)cc2Cl)c(Cl)c1 [Example 10]	6
N=C(N)c1cccc(OCCCOc2cccc(C(=N)N)c2)c1 [Example 11]	17
N=C(N)c1cccc(OCCCCOc2cccc(C(=N)N)c2)c1 [Example 12]	15
N=C(N)c1cccc(OCCCCCOc2cccc(C(=N)N)c2)c1 [Example 13]	9
N=C(N)c1cccc(OCCCCCCOc2cccc(C(=N)N)c2)c1 [Example 14]	14
c1cc(C2=NCCN2)ccc1OCCCCCOc1ccc(C2=NCCN2)cc1 [Example 15]	5
CN1CCN=C1c1ccc(OCCCCCOc2ccc(C3=NCCN3C)cc2)cc1 [Example 16]	18
COc1cc(C2=NCCN2)ccc1OCCCOc1ccc(C2=NCCN2)cc1OC [Example 17]	11
c1cc(C2=NCCN2)ccc1OCCCOc1ccc(C2=NCCN2)cc1 [Example 18]	8

Reference: patent publication US5202320A, “Method for treating leishmaniasis” (priority 1989, dated 1993)
